# For at least one compound, name, drawing or mass did not settle the structure.
# Test system: rat aortic ring segments
# Experiment: Isometric tension: vasodilation of rat aortic ring segments preconstricted with phenylephrine
# Format: cell-based
# Conditions: phenylephrine-preconstricted rat aorta
# Protocol: Vasodilation of rat aortic ring segments preconstricted with phenylephrine, Example 3, Table 1. […].
# After reaching a stable preconstriction of vascular tone, the vessels were dose-dependently vasodilated until the final tone at the highest added concentration of the vasodilator was reached. The vasodilators were added at half-logarithmic concentrations starting at 10^−8 M (=10 nanomolar). Vasodilatory potency was compared creating a concentration-relaxation curve. The data are based on experiments with aorta from at least 6 rats on 3 different days.
smiles,measurement,value
"CCCCC(=O)N(Cc1ccc(-c2ccccc2-c2nnn[nH]2)cc1)C(C(=O)N(C)CCCCO[N+](=O)[O-])C(C)C [compound 2, (2R)-3-Methyl-2-(N-((2′-(1H-tetrazol-5-yl)biphenyl-4-yl)methyl)pentanamido)-butanoyl N-methyl-N-4-nitroxybutyl-amide]",Vasodilatory potency (in words),significantly less potent in dilating the isolated rat aorta

# Reference: patent publication US8729115B2 (Cardiolynx AG, priority 2010, dated 2014)
